Binding data for six substances are collected here from paper PMC4488328.

Results are given in words; binding and its absence hold for the method and conditions named. In cells and extracts the contact can be indirect. Binding calls can cover weak binding; strength is not graded here. Tags and fused reporters may be left off the sequences shown.

Test [1] deals with T1, Salvador (Sav), Myc-tagged (Drosophila) (UniProt Q9VCR6).
T1 sequence: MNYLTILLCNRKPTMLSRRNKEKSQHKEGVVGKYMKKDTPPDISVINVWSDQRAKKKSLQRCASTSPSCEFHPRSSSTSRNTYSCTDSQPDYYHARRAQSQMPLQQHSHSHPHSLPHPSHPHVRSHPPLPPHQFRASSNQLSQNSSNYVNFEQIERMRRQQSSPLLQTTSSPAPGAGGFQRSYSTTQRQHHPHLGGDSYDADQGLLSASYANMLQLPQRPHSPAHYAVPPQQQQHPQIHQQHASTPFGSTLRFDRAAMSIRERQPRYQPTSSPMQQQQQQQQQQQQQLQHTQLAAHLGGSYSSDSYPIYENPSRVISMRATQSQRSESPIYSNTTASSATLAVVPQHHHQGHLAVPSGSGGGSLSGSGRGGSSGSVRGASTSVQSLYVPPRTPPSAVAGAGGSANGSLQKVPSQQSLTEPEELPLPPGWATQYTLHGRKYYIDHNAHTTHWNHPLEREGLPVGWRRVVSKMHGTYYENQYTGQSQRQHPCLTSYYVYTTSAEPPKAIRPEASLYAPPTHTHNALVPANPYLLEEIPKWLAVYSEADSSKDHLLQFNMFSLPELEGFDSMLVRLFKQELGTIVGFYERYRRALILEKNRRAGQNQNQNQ
In words: co-IP; mapping with fragments of Herc4 or Sav in S2 cells (Fig 7A, 7B); which partner was precipitated is not told.

Test [2] has as its target T1, Salvador (Sav), Myc-tagged (Drosophila). The experiment in a line: co-IP; within the Sav ubiquitylation assay: S2 cells transfected with Myc-Sav (or Sav∆N, Sav∆C), HA-ubiquitin and Herc4 and/or Hpo constructs; proteasome inhibitors 4 h unless stated otherwise (5 mM NEM in Fig 8A); anti-Myc immunoprecipitation with Protein A Sepharose; western blot. (In general: In western blotting, separated proteins are transferred to a membrane and probed.)

On to “Herc4 ∆HECT (Herc4 lacking the entire HECT domain) (Drosophila melanogaster) (domain or fragment)”, for which the binding result in test [1] is recorded as “binds”.
In the case of “Hpo∆C2 (longer C-terminal truncation of Hpo lacking the SARAH domain) (Drosophila) (domain or fragment)”, the binding entry in test [2] is listed as “binds”.
In the case of “Hpo∆C3 (shorter C-terminal truncation of Hpo lacking the SARAH domain) (Drosophila) (domain or fragment)”, the binding entry in test [2] is reported as “binds”.
Turning to “Herc4 ∆RCC1-3 (Herc4 lacking RCC1-like repeats 1–3) (Drosophila melanogaster) (domain or fragment)”, the binding entry in test [1] is reported as “binds”.
Turning to “Herc4 ∆RCC1-7 (Herc4 lacking the whole RLD domain) (Drosophila melanogaster) (domain or fragment)”, in test [1], the binding entry is “no binding”.
With “Hpo∆N (Hpo with the kinase domain deleted) (Drosophila) (domain or fragment)”, in test [2], the binding result is listed as “binds”.
